Results are given in words; binding and its absence hold for the method and conditions named. For some of these results: Binding seen in cells or lysates may run through a third protein. Some entries that bind do so weakly or less than the wild type.

Assay [1] concerns the target H3R-YFP (rat histamine H3 receptor, long isoform H3(445)R, fused to Yellow Fluorescent Protein) (rat) (UniProt Q9QYN8). Put plainly: co-IP; HEK 293 cells co-transfected with H3R-YFP and Xpress-H3R; lysis in 50 mM Tris pH 7.5, 150 mM NaCl, 10 mM EDTA, 0.5% Triton X-100; precipitated by the YFP (anti-GFP antibodies with protein A-sepharose in the methods, GFP-Trap agarose beads in the legend), blot with anti-Xpress antibody; background: Xpress-H3R without H3R-YFP.

Assay [2] concerns the target native brain histamine H3 receptor (H3R) (rat (endogenous in rat brain)) (UniProt Q9QYN8). Put plainly: SDS-PAGE and Western blot (SDS-resistant dimer); membranes from rat cerebral cortex, cerebellum and hypothalamus, NuPAGE 7% Tris-acetate gel, reducing conditions, anti-H3R antibody. On the technique in general: A western blot detects proteins with antibodies after separation by electrophoresis.

Assay [3] addresses H3R-RLuc (rat histamine H3 receptor, long isoform H3(445)R, fused to Renilla Luciferase) (rat) (UniProt Q9QYN8). Put plainly: FRET or BRET; BRET on sub-cellular fractions (sucrose step gradient: plasma membrane and ER fractions) and membrane preparations of HEK 293 cells co-transfected with H3R-RLuc and H3R-YFP. On the technique in general: BRET reads energy transfer from a luciferase to a nearby fluorophore.

For assay [4] the target is unchanged. Put plainly: FRET or BRET; BRET in living rat cortical neurons in primary culture co-transfected with H3R-RLuc and H3R-YFP or TAAR1-YFP; without or with H3R ligands (100 nM).

Consider “Xpress-H3R (H3 receptor tagged at its N-terminus with an Xpress epitope) (from UniProt Q9QYN8 1-445)”, for which the binding entry in assay [1] is on record as “binds”.

Regarding “native brain histamine H3 receptor (H3R) (from UniProt Q9QYN8 1-445)”, the binding entry in assay [2] was “binds”.

B1: H3R-YFP (rat histamine H3 receptor, long isoform H3(445)R, fused to Yellow Fluorescent Protein) (receptor, UniProt Q9QYN8 1-445, looked up)
chain: MERAPPDGLMNASGTLAGEAAAAGGARGFSAAWTAVLAALMALLIVATVLGNALVMLAFVADSSLRTQNNFFLLNLAISDFLVGAFCIPLYVPYVLTGRWTFGRGLCKLWLVVDYLLCASSVFNIVLISYDRFLSVTRAVSYRAQQGDTRRAVRKMALVWVLAFLLYGPAILSWEYLSGGSSIPEGHCYAEFFYNWYFLITASTLEFFTPFLSVTFFNLSIYLNIQRRTRLRLDGGREAGPEPPPDAQPSPPPAPPSCWGCWPKGHGEAMPLHRYGVGEAGPGVEAGEAALGGGSGGGAAASPTSSSGSSSRGTERPRSLKRGSKPSASSASLEKRMKMVSQSITQRFRLSRDKKVAKSLAIIVSIFGLCWAPYTLLMIIRAACHGRCIPDYWYETSFWLLWANSAVNPVLYPLCHYSFRRAFTKLLCPQKLKVQPHGSLEQCWK
notes: histamine H3 receptor, rat, long isoform H3(445)R (445 residues), cDNA amplified without its stop codon and cloned into pEYFP-N1; The same construct was expressed in HEK 293 cells and in rat cortical neurons; the assay tells which; also called C-terminal YFP-fused H3R; source: rat cortical neurons in primary culture, transfected (lipofectamine 2000); not shown: YFP, C-terminal, kept
As to B1, the binding entry in assay [3] and in assay [4] was “binds” in each case.

Source of the values: article PMC8508734 (International Journal of Molecular Sciences, 2021).
